Entries after “also recorded” stand apart in the source; their conditions may differ. Part of at least one peptide drawing is inferred or uncertain, most often the ends. Ends that are not written are not given here.
Columns and labels:
[1] = test system: human primary fibroblasts isolated from 3 healthy donors; assay: Etoposide-induced senescence; format: cell-based; details: 48 hours
Experimental: (§1) Cellular senescence may be caused by several different stimuli. In order to assess whether Peptide 14 was effective against UVB-induced and chemically-induced senescence, human primary fibroblasts isolated from 3 healthy donors were used. These cells were cultured in DMEM (Dulbecco's Modified Eagle's Medium) supplemented with 10% v.v. fetal bovine serum (FBS), and 1% v.v. of penicillin/streptomycin solution (1,000 U mL-1). Cells were kept in a 5% CO2, 37° C. and 95% humidity atmosphere. After expansion, these cells were seeded in 96-well plates (4,000 cells per well) and, 6 hours after plating, were submitted to either etoposide (20 μM) treatment for 24 hours, or exposed twice to 0.05 J/cm^2 of UVB radiation. […] After incubation, relative cellular senescence (assessed by the activity of senescence associated β-galactosidase staining relative to untreated control) was analyzed and plotted in column graphs. ATRX foci were also assessed following ATRX immunofluorescence staining. Graphs were built using the average ATRX foci detected per nuclei. […] Data was analyzed using with either t-test or ANOVA followed by a Bonferroni post-hoc test. Statistical significance was determined as p-values equal or lower than 0.05 (FIG. 6).

[2] = test system: human primary fibroblasts isolated from 3 healthy donors; assay: UVB-induced senescence; format: cell-based; details: 5 μM, 48 hours
Experimental: as §1

[3] = test system: human skin equivalents (donors); assay: Histology score of human skin equivalents (Example 16); format: cell-based; details: 0.01% w/v (or 1 μM), 5 days; control 21.00
Experimental: To test the effect of Peptide 13 and Peptide 14 treatment on human skin models and the skin morphology, human primary fibroblasts and keratinocytes isolated from healthy elder donors were used to build human skin equivalents. The skin equivalents were treated with 0.01% w/v (or 1 μM) of Peptide 13 or Peptide 14 for 5 days. The negative controls were treated with formulation only. After the 5-day culture, the skin equivalents were analyzed for epidermal thickness, which was quantified according to total epidermal area. Quality assessment based several parameters was performed by blind analysts. […] A minimal score of 19 was required for batch use. This score was validated internally and shown to decrease with age/senescence of the skin equivalents or cultured cells. Three independent experiments were performed with three technical replicates. Data were analyzed using a t-test. Statistical significance was determined as p-values equal or lower than 0.05. The statistically significant p-values are noted by * for p<0.05; ** for p<0.01; *** for p<0.001; **** for p<0.0001 between the groups.

[4] = test system: facial skin of human subjects; assay: Clinical study of topical application on the face; format: in vivo
Caenorhabditis elegans = assay: C. elegans healthspan and lifespan; format: in vivo
Experimental: Senotherapeutic strategies can be linked to healthspan and lifespan extension in vivo. In order to assess whether Peptide 14 promotes extended healthspan and lifespan, Caenorhabditis elegans worms were used. Peptide 14 was added in the worm media (M9 buffer media) at different concentrations of 1 μM or 2 μM. Negative control worms received vehicle only. Two healthspan parameters were assessed i) pharyngeal pumping and ii) worm movement. Lifespan was also determined. For pharyngeal pumping analysis, 15 worms had their pharynx movement (pumping) observed daily and counted for 20 seconds. This experiment was repeated 3 times, by 2 different blind observers, employing different populations of animals at different days. Statistical difference was detected by analyzing each individual time point by One-Way ANOVA and Dunnet's post hoc test. All groups were compared with the H2O group. For worm movement analysis, the basic movement of C. elegans, also called thrashing, was measured daily for 15 worms. Observation duration was 30 seconds. The experiment was repeated 3 times, by 2 different blind observers, employing different populations of worms at different days. Statistical difference was detected by analyzing each individual time point by One-Way ANOVA and Dunnet's post hoc, and all groups were compared with the H2O group. For lifespan analysis, 15 worms had their lifespan observed daily until the last worm died. This experiment was repeated 3 times, by 2 different blind observers, employing different populations of worms at different days. The average lifespan was measured. Statistical difference was detected by analyzing each individual time point by One-Way ANOVA and Dunnet's post hoc, and all groups were compared with the H2O group (FIG. 15).

HGPS HDFs [5] = assay: Real-time qPCR in HGPS HDFs; format: cell-based, human
HGPS HDFs [6] = assay: Protein expression analysis in HGPS HDFs; format: cell-based, human

ETAKHWLKGI [Peptide 14, ETAKHWLKGI]
SA β-galactosidase staining in etoposide-stressed cells ([1]; 2.5 μM or 5 μM): significantly reduced | Average ATRX foci/cell in etoposide-exposed cells ([1]; 2.5 μM): significantly reduced | cellular senescence (SA β-Galactosidase staining) after UVB ([2]; 2 x 0.05 J/cm^2 UVB): significantly prevent cellular senescence | ATRX foci/nuclei after UVB ([2]; vs UVB without peptide): significantly reduced | mean of histology scores (maximum 28) [3]: 23.83 | clinical grading: lines/wrinkles, skin tone, pores, texture/smoothness, firmness, elasticity, overall appearance ([4]; 0.01% formulation, week 6 and week 12 vs baseline): statistically significant improvements | clinical grading: radiance/luminosity ([4]; 0.01% formulation, week 12 vs baseline): statistically significantly improved | patients with improved skin elasticity (blind expert) ([4]; 12 weeks): 90% | patients with improvement in appearance of pores (blind expert) ([4]; 12 weeks): 95.5% | patients with improvement in firmness (blind expert) ([4]; 12 weeks): 95.5% | patients with improvement in radiance (blind expert) ([4]; 12 weeks): 95.5% | patients with improvement in skin evenness (blind expert) ([4]; 12 weeks): 95.5% | subjects with better overall appearance (blind expert) ([4]; 12 weeks): All subjects | subjects with better skin barrier (Vapometer) ([4]; 12 weeks): 81% | subjects with better skin radiance (VISIA) ([4]; 12 weeks): 73% | subjects with better skin roughness (Antera) ([4]; 12 weeks): 73% | subjects with better skin texture/smoothness (blind expert) ([4]; 12 weeks): All subjects | MPI, appearance of pores (blind expert) ([4]; 12 weeks vs baseline): 4.58% | MPI, appearance of skin wrinkles (blind expert) ([4]; 12 weeks vs baseline): 3.3% | MPI, firmness (blind expert) ([4]; 12 weeks vs baseline): 5.43% | MPI, overall appearance (blind expert) ([4]; 12 weeks vs baseline): 6.17% | MPI, radiance (blind expert) ([4]; 12 weeks vs baseline): 5.06% | MPI, skin barrier (Vapometer) ([4]; 12 weeks vs baseline): 14.19% | MPI, skin elasticity (blind expert) ([4]; 12 weeks vs baseline): 4.75% | MPI, skin evenness (blind expert) ([4]; 12 weeks vs baseline): 4.4% | MPI, skin radiance (VISIA) ([4]; 12 weeks vs baseline): 16.63% | MPI, skin roughness (Antera) ([4]; 12 weeks vs baseline): 5.05% | MPI, skin texture/smoothness (blind expert) ([4]; 12 weeks vs baseline): 7.46% | patients with reduction in appearance of skin wrinkles (blind expert) ([4]; 12 weeks, 0.01% cream, 22 patients): 87% | appearance of face in photographs (FIG. 13) ([4]; 12 weeks, 0.01%, vs baseline): decreased the appearance of lines and wrinkles | Dermascan dermal thickness (density) and echogenicity vs negative control side ([4]; human, in vivo): No significant differences | Visia overall skin appearance vs negative control side ([4]; human, in vivo): No significant differences | subjects noticing an improvement in skin radiance ([4]; subjects' perception): 78% | subjects perceiving better hydration ([4]; subjects' perception): greater than 80% | subjects perceiving better skin appearance ([4]; subjects' perception): greater than 80% | subjects perceiving better skin firmness ([4]; subjects' perception): greater than 80% | subjects perceiving better skin texture ([4]; subjects' perception): greater than 80% | TEWL improvement (VapoMeter) vs negative control side ([4]; week 6): better | collagen level (SIAScope) vs negative control side ([4]; week 6): higher level | Antera texture (roughness) vs negative control side ([4]; week 12): better | worm average lifespan (Caenorhabditis elegans; 1 μM and 2 μM): statistically significant increase | pumping, day 1 (Caenorhabditis elegans; 1 μM or 2 μM): significantly decreased | pumping, day 8, vs control (Caenorhabditis elegans; 1 μM or 2 μM): increased | thrashing, day 1 (Caenorhabditis elegans; 1 μM or 2 μM): significantly improved | thrashing, day 8, vs control (Caenorhabditis elegans; 1 μM or 2 μM): increased | pharyngeal pumping (Caenorhabditis elegans; 1 μM or 2 μM in worm media): improved | worm thrashing (Caenorhabditis elegans; 1 μM or 2 μM in worm media): improved | defects in the macroscopic anatomy of the pharynx vs H2O control (Caenorhabditis elegans; 1 μM, not directly measured): reduced | PPP2R1A mRNA level (HGPS HDFs [5]): significant increase | FOXO3 gene expression (HGPS HDFs [5]; 12.5 μM): upregulated | RB1CC1 gene expression (HGPS HDFs [5]; 12.5 μM): no statistical significance | RBL2 gene expression (HGPS HDFs [5]; 12.5 μM): significant reduction | SIRT1 gene expression (HGPS HDFs [5]; 12.5 μM): no statistical significance; also recorded: reduced | TGFBR1 gene expression (HGPS HDFs [5]; 12.5 μM): significantly decreased | PP2A subunit A protein level (HGPS HDFs [6]): significant increase | P16 protein level (HGPS HDFs [6]; 12.5 μM): significantly reduced | P21 protein level (HGPS HDFs [6]; 12.5 μM): significantly reduced | phosphorylation of Ser473 of Akt (HGPS HDFs [6]; 12.5 μM): significantly reduced; also recorded: significant reduction | phosphorylation of yH2AX (Ser139) (HGPS HDFs [6]; 12.5 μM): significant decrease
